The other results are listed elsewhere or left out.

By UniProt entry, the sequences of proteins in these tests, tags left out.
UniProt Q0JBA9, entry or part of it: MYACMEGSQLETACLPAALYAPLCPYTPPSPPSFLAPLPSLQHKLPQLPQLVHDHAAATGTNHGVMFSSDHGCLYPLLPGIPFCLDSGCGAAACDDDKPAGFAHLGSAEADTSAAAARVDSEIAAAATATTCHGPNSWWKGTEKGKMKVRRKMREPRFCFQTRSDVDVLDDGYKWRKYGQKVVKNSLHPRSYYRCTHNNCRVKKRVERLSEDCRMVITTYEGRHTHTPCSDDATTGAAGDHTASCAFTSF

The target in this test is OsWRKY34 (Oryza sativa, UniProt Q0JBA9 1-250). Briefly: protein-binding microarray (RPBM); PBS, 2% BSA, 51.3 ng/ul salmon testes DNA, 50 uM zinc acetate, 200 nM TF, 25 C, 1 h; high values mean tight binding. The following applies: protein: recombinant; tags: N-terminal polyhistidine and DsRed monomer fusion (pET32a); label: CyDye5-dUTP incorporated in the synthesized complementary strand; 3' TTTTT single-stranded linker to array surface; dsDNA, one strand shown. In a few lines:
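Binding signal is reported as fluorescence intensity per feature (arbitrary units) from an Axon 4000B scanner. Incubation used 200 nM of each Ni–NTA-purified, N-terminally polyhistidine- and DsRed-fused transcription factor from E. coli BL21-CodonPlus on a double-stranded custom Agilent array for 1 h at 25 °C, with 50 µM zinc acetate in the buffer, followed by washing.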
As to “CAGGTCAAACTCACACGCTGGCCCAGTTGCTCAGTTAACTCGGAGTCACCTAGTGCAG”, the binding signal was 8280 fluorescence intensity (a.u.). To “TGGCTACTAGTTCTCTCTTCAACCTTGTTTATCTTATCTACGGAGTCACCTAGTGCAG” belongs 12800 fluorescence intensity (a.u.); to “AATTCCTTCGTCGGCAGCGTGCATTCCTTGGTCTATCCTTCGGAGTCACCTAGTGCAG”, 9550 fluorescence intensity (a.u.). The value for “CTGGACCGTCCTGCTGTCGCCGTTGACCTCACCGCTGCCGCGGAGTCACCTAGTGCAG” was 14100 fluorescence intensity (a.u.); that for “GTGGGGAGGGGCGCGCAGGGGTAGCCCGGCAGTGAGCATTCGGAGTCACCTAGTGCAG” was 9630 fluorescence intensity (a.u.). The value for “TTGGTCTCTTTAATGTTTTCTACGTGGACCCTGCATATTACGGAGTCACCTAGTGCAG” was 9900 fluorescence intensity (a.u.); that for “CACTCGCTCGCCACACACCATCACCCATGCGCGCTAATTACGGAGTCACCTAGTGCAG” was 10900 fluorescence intensity (a.u.).

On to “ACTCTTTCCGTCTGTTGATTTCGTGAAAAGTTTCCTTAGACGGAGTCACCTAGTGCAG”, for which the binding signal is 10600 fluorescence intensity (a.u.).

In the case of “ATCCGCGGCCTTTGTCATTGTTTCTTTATTCTCGAGTCGTCGGAGTCACCTAGTGCAG”, the binding signal was 10000 fluorescence intensity (a.u.).

Turning to “TGTCAATGTTTTAGGTTCTCATAGTAAATACTAACATCCTCGGAGTCACCTAGTGCAG”, the binding signal is 8020 fluorescence intensity (a.u.).

On to “TTATAAATTTAGCTAGGTATTAGGTCCATGGTAATACTGACGGAGTCACCTAGTGCAG”, for which the binding signal is 8240 fluorescence intensity (a.u.).

As to “ATGGTGGGCTTGTATTGTCCTGCAGTCCTGCTTGTTTTACCGGAGTCACCTAGTGCAG”, the binding signal was 10700 fluorescence intensity (a.u.). To “TTCGTCTCTCTCTCGCTCGGCCCGCGTTCGGTTGCTTGTCCGGAGTCACCTAGTGCAG” belongs 9430 fluorescence intensity (a.u.). Take “ACTTTCTAAACTTTGGTAATTTTCCCCTATTTCGTCCATACGGAGTCACCTAGTGCAG”: the binding signal is 12800 fluorescence intensity (a.u.). Turning to “GGGTAGGGTAGGGGCTTGCCTCCGATTCCGTACGGACACACGGAGTCACCTAGTGCAG”, the binding signal was 8400 fluorescence intensity (a.u.).

On to “TTCTCCTGTCGCTTGTGTTCCTGTTTAATTTTGCTATTAACGGAGTCACCTAGTGCAG”, for which the binding signal was 8160 fluorescence intensity (a.u.). The value for “ATTGGAGGCAAAAGGGTTGGGAACAATCGGGATTTTTTTTCGGAGTCACCTAGTGCAG” was 8780 fluorescence intensity (a.u.); that for “TCGTGTCTAGTTCCTCCTCCAAAATTTTTTTAACGTATACCGGAGTCACCTAGTGCAG” was 8270 fluorescence intensity (a.u.). To “TTACTCTACTCATTTAGCTTTTGGTTGGTTGGTTCCCTTCCGGAGTCACCTAGTGCAG” belongs 14400 fluorescence intensity (a.u.); to “AAACAGTTTAACTTTCATAGGCGCTTTGCAATCCCAAATCCGGAGTCACCTAGTGCAG”, 8550 fluorescence intensity (a.u.); to “TTTTCCACCCAATCCTGCAGCGATTCCCCGCAGAAACCTCCGGAGTCACCTAGTGCAG”, 8210 fluorescence intensity (a.u.). As to “AATGGTTGTGATTATGTTTCTCGTGCCAAATCTGTTCGCTCGGAGTCACCTAGTGCAG”, the binding signal was 9700 fluorescence intensity (a.u.). The value for “TCCTGCTTTTTCTTTTTCTCCGATTAATGCGAGAATTTCTCGGAGTCACCTAGTGCAG” was 8670 fluorescence intensity (a.u.); that for “GCCTTCGTTGCTCCGCAAGCATTTCCCGCTCGCAAATTCCCGGAGTCACCTAGTGCAG” was 11300 fluorescence intensity (a.u.); that for “AGTTATTTTCCTTCTTCTCCATTCCCGGCCATGTTCTTCACGGAGTCACCTAGTGCAG” was 10400 fluorescence intensity (a.u.). To “CGCCGACCAAAAACCTAGCGATTGACATCTCGGCCCCACCCGGAGTCACCTAGTGCAG” belongs 8080 fluorescence intensity (a.u.); to “CGCATCTCTTATACCAATTTCGGGGTCTGGGATCTGGGTTCGGAGTCACCTAGTGCAG”, 12400 fluorescence intensity (a.u.); to “CTCGCCGGCTATTCAACCTTGGGGCCATCTTTTTTGGGGTCGGAGTCACCTAGTGCAG”, 12600 fluorescence intensity (a.u.). The value for “CAGGTCATTTTGGTGTGTGCTTTGCGGTATTAACTCGTGCCGGAGTCACCTAGTGCAG” was 8700 fluorescence intensity (a.u.). As for “ATTCATTATTTTTAATTCCAAATTTCAGTTATTTCCTAATCGGAGTCACCTAGTGCAG”, the binding signal was 8380 fluorescence intensity (a.u.). The value for “CTGAGTGATGCCATTTCAAACCATACCATTTTTTTTTGGGCGGAGTCACCTAGTGCAG” was 10200 fluorescence intensity (a.u.); that for “TGAGGAATGAATTCCCTCCTTTTCAATACCTGGGTAGGGGCGGAGTCACCTAGTGCAG” was 8590 fluorescence intensity (a.u.); that for “CACCTATCACCCACAGGCATGAGACCTGGTATCATAATATCGGAGTCACCTAGTGCAG” was 8160 fluorescence intensity (a.u.). To “TCATTCATTCGCCAGTGGCAAGCTTATCGCCGGCCGGCCGCGGAGTCACCTAGTGCAG” belongs 9900 fluorescence intensity (a.u.). To “TGTTTTGTTATTAGTCTATGTTTAATACTTTAAATGTGTACGGAGTCACCTAGTGCAG” belongs 8050 fluorescence intensity (a.u.). Turning to “ATCTGTAATTTGTTTTGTTAATTTGTTTTGTTATTAGTCTCGGAGTCACCTAGTGCAG”, the binding signal was 9850 fluorescence intensity (a.u.). The value for “ACTTTCTTGGCCTCTCTCCTGTCTCTACCTCTCCCTTTCTCGGAGTCACCTAGTGCAG” was 8260 fluorescence intensity (a.u.); that for “CGTTATTCCGCTGTTGTTTTTTTTTTCTTTTGTAAGTATGCGGAGTCACCTAGTGCAG” was 17500 fluorescence intensity (a.u.); that for “GGTTGGTAATGAGATGGCTTTTCCTACTTGTTGTATACATCGGAGTCACCTAGTGCAG” was 12000 fluorescence intensity (a.u.). Consider “CGCCTTCGGCCACCAACACCGGCGTGGGAGGGAGGGCATGCGGAGTCACCTAGTGCAG”, for which the binding signal was 11700 fluorescence intensity (a.u.). To “CCGAGCGCCGCCTCTCCTTGTCAAGCCGCCGCGCGCTGCCCGGAGTCACCTAGTGCAG” belongs 9870 fluorescence intensity (a.u.); to “ATCTGGCTTAACCACGCCCGGCTCTTCCCCTCCATCCAACCGGAGTCACCTAGTGCAG”, 8040 fluorescence intensity (a.u.).

The values are drawn from article PMC7819943, “Rice protein-binding microarrays: a tool to detect cis-acting elements near promoter regions in rice”.
